According to patent US20230293405A1, “Compositions Comprising UV-Filters and One or More (Bio)-Alkanediols” (Symrise AG, priority 2020, published 2023):

Test: Sensory properties of oil component blended with alkanediol, assessed by untrained panelists on the backside of the hand
Assay type: in vivo
Conditions: for Spreading with: 30 s after application; for Spreading with / Fatty/greasy skin feeling with: scale 1 (low) to 5 (high); for Fatty/greasy skin feeling with: after 2 minutes; for Fatty/greasy skin feeling Delta / Spreading Delta: with vs without alkanediol
Source text: For evaluating the sensory behavior, oil components specified in the following Table 13 were blended with 1,2-heptanediol or 2,3-heptanediol or a mixture of 1,2-heptanediol and 2,3-heptanediol or 1,2-octanediol or 2,3-octanediol or a mixture of 1,2-octanediol and 2,3-octanediol (formulation) and assessed by untrained panelists in comparison to the oil component without addition of the specified alkanediols (placebo).
Test procedure: • Hands were pre-washed with liquid soap by following a defined procedure; • 30 μl of corresponding sample was applied on the backside of each hand (randomized); • After 30 s the spreading behavior of the respective formulation on skin was evaluated versus the respective oil component without 1,2-heptanediol on a scale from 1 to 5 (1=low spreading; 5=high spreading); • The samples were distributed with the fingertips of middle and forefinger with 2×5 cycles; • After 2 minutes, the fatty/greasy skin feeling was evaluated on a scale from 1 to 5 (1=low fatty/greasy skin feeling; 5=high fatty/greasy skin feeling); • Furthermore, the applicants were asked to assess the absorption, i.e. the impression of amount of remaining residue on the skin on a scale from 1 to 5 (1=low absorption; 5=high absorption).

[1] = in Helianthus Annuus (Sunflower) Seed Oil

For `CCCCCC(O)C(C)O` (centres unmarked) [2,3-octanediol], the Spreading with (in Argan Oil) was 3.4, the “Fatty/greasy skin feeling with” value (in Argan Oil) was 2.4 and the “Fatty/greasy skin feeling Delta” value (in Argan Oil) was 1.6. For the same compound, the “Spreading Delta” value (in Argan Oil) was 1.4, the Spreading with (in Avocado Oil) was 3.2 and the “Fatty/greasy skin feeling with” value (in Avocado Oil) was 2.8. For the same compound, the “Fatty/greasy skin feeling Delta” value (in Avocado Oil) was 1, the “Spreading Delta” value (in Avocado Oil) was 1.2 and the Spreading with (in Cacao butter) was 3. For the same compound, the “Fatty/greasy skin feeling with” value (in Cacao butter) was 3, the “Fatty/greasy skin feeling Delta” value (in Cacao butter) was 1.2 and the “Spreading Delta” value (in Cacao butter) was 1.2. The Spreading with (in Castor Oil) was 1.8, the “Fatty/greasy skin feeling with” value (in Castor Oil) was 2.8 and the “Fatty/greasy skin feeling Delta” value (in Castor Oil) was 1.4. For the same compound, the “Spreading Delta” value (in Castor Oil) was 0.6, the Spreading with (in Coconut Oil) was 4.2 and the “Fatty/greasy skin feeling with” value (in Coconut Oil) was 2.2. The “Fatty/greasy skin feeling Delta” value (in Coconut Oil) was 1.4, the “Spreading Delta” value (in Coconut Oil) was 1.8 and the Spreading with (in Grapeseed Oil) was 2.8. For the same compound, the “Fatty/greasy skin feeling with” value (in Grapeseed Oil) was 2.8, the “Fatty/greasy skin feeling Delta” value (in Grapeseed Oil) was 1.4 and the “Spreading Delta” value (in Grapeseed Oil) was 0.8. For the same compound, the Spreading with [1] was 3.4, the “Fatty/greasy skin feeling with” value [1] was 3 and the “Fatty/greasy skin feeling Delta” value [1] was 0.8. For the same compound, the “Spreading Delta” value [1] was 2, the Spreading with (in Olive Oil) was 3.2 and the “Fatty/greasy skin feeling with” value (in Olive Oil) was 2.4. For the same compound, the “Fatty/greasy skin feeling Delta” value (in Olive Oil) was 1.4 and the “Spreading Delta” value (in Olive Oil) was 0.8.
